Our source for the binding values is article PMC11141627.

The target of the assay is Human PABPC1 (as PABPC1-A24) (human), P11940. As to the kind of experiment: condition: PABPC1-A24 (8.9 μM) titrated with RNH1 (89 μM); ITC; PABPC1-A24 (8.9 uM) titrated with RNH1 (89 uM); MicroCal PEAQ-ITC; 10 mM Na2HPO4 pH 7.4, 1.8 mM KH2PO4, 137 mM NaCl, 2.7 mM KCl; 25 C; both purified. Conditions: remark: other sources report otherwise.

Results are given in words; binding and its absence hold for the method and conditions named.

B1: full-length recombinant RNH1 protein, P13489 1-461 (protein)
chain: MSLDIQSLDIQCEELSDARWAELLPLLQQCQVVRLDDCGLTEARCKDISSALRVNPALAELNLRSNELGDVGVHCVLQGLQTPSCKIQKLSLQNCCLTGAGCGVLSSTLRTLPTLQELHLSDNLLGDAGLQLLCEGLLDPQCRLEKLQLEYCSLSAASCEPLASVLRAKPDFKELTVSNNDINEAGVRVLCQGLKDSPCQLEALKLESCGVTSDNCRDLCGIVASKASLRELALGSNKLGDVGMAELCPGLLHPSSRLRTLWIWECGITAKGCGDLCRVLRAKESLKELSLAGNELGDEGARLLCETLLEPGCQLESLWVKSCSFTAACCSHFSSVLAQNRFLLELQISNNRLEDAGVRELCQGLGQPGSVLRVLWLADCDVSDSSCSSLAATLLANHSLRELDLSNNCLGDAGILQLVESVRQPGCLLEQLVLYDIYWSEEMEDRLQALEKDKPSLRVIS
With B1, the binding entry is listed as “no binding”.
